Reference: PubChem BioAssay AID1259279 (Sanger Institute, 2017)

- Assay: 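Kinases that colorectal cancer cells need to survive, alone or with drugs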 (primary screen)
- System: LS180 human colorectal cancer cells
- Reagents: siRNA pool against human genes
- Conditions: anchor drug BYL719 at 1 µM, cetuximab at 5 µg/ml or trametinib at 10 nM, or DMSO vehicle only
- Measurement: 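Viability as a fraction of non-targeting control and as a replicate-averaged robust z-score, with separate synergy scores for BYL719, cetuximab and trametinib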
- Reading the numbers: viability z-score, no drug: higher = more viable cells after knock-down
- Call rule: 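Essential (active) calls need a no-drug viability z-score lower than -3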
- Meaning of the calls: active = essential (knock-down alone cuts viability); inactive = no change without drug
In all, the deposit lists 794 reagents; below is a random part of them. Over the whole deposit, 11 (1.4%) got an active call. 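Calls reflect knock-down alone in the vehicle arm, not drug synergy.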 Further read-outs or replicates are left out here. Not given: the amount of reagent, the time to read-out.

| gene knocked down | viability z-score, no drug | activity call |
| --- | --- | --- |
| CAMK2G | 0.86 | inactive |
| STK35 | 0.248 | inactive |
| FGFR3 | -2.15 | inactive |
| CHEK2 | 0.86 | inactive |
| PDIK1L | -0.471 | inactive |
| ULK2 | 0.618 | inactive |
| STAG2 | 0.86 | inactive |
| MAP2K4 | 0.0407 | inactive |
| PRKAR1A | 0.86 | inactive |
| CKMT2 | 0.86 | inactive |
| BRWD1 | -0.739 | inactive |
| TSKS | 0.86 | inactive |
| ACVR2A | 0.661 | inactive |
| DYRK1A | -0.2 | inactive |
| NUP107 | -1.03 | inactive |
| ACO1 | 0.59 | inactive |
| EPHA8 | 0.206 | inactive |
| PLK3 | -0.178 | inactive |
| PCBP1 | -0.574 | inactive |
| MARK1 | -0.503 | inactive |
| PFKFB2 | 0.812 | inactive |
| TP53RK | 0.0543 | inactive |
| CDADC1 | -0.705 | inactive |
| GK | 0.373 | inactive |
| PCK2 | -0.23 | inactive |

An excerpt taken from the entries so far, for reference:
| gene knocked down | viability z-score, no drug | activity call |
| --- | --- | --- |
| EPHA8 | 0.206 | inactive |
| PLK3 | -0.178 | inactive |
| PCBP1 | -0.574 | inactive |
| MARK1 | -0.503 | inactive |
| PFKFB2 | 0.812 | inactive |
| TP53RK | 0.0543 | inactive |

More reagents follow:
| gene knocked down | viability z-score, no drug | activity call |
| --- | --- | --- |
| TAOK2 | 0.86 | inactive |
| FRK | 0.86 | inactive |
| PRKDC | -0.842 | inactive |
| KSR2 | 0.533 | inactive |
| RSKR | 0.456 | inactive |
| TAF1L | 0.739 | inactive |
| ROR1 | 0.755 | inactive |
| MAP2K5 | 0.86 | inactive |
| KRAS | -3.61 | active |
| STK38 | 0.501 | inactive |
| MAP2K2 | 0.0786 | inactive |
| PHKA1 | 0.656 | inactive |
| RIOK3 | 0.86 | inactive |
| ATRX | 0.0659 | inactive |
| STKLD1 | -0.834 | inactive |
| CKS2 | 0.564 | inactive |
| DDR2 | 0.744 | inactive |
| ITPKA | 0.86 | inactive |
| CDKL4 | 0.364 | inactive |
| MAPK12 | 0.86 | inactive |
| PIK3R2 | 0.86 | inactive |
| CDK5R1 | -0.385 | inactive |
| CALM3 | -0.685 | inactive |
| CLSPN | -2.42 | inactive |
| PI4KB | 0.86 | inactive |
